# In PubChem BioAssay AID588590 (National Center for Advancing Translational Sciences (NCATS), 2011):
# Protein sequences, listed by entry. Tags and fused reporters are not part of them. Lines headed by an entry give the natural chain unless they say otherwise; changes in a name come on top.
# UniProt Q9UNA4: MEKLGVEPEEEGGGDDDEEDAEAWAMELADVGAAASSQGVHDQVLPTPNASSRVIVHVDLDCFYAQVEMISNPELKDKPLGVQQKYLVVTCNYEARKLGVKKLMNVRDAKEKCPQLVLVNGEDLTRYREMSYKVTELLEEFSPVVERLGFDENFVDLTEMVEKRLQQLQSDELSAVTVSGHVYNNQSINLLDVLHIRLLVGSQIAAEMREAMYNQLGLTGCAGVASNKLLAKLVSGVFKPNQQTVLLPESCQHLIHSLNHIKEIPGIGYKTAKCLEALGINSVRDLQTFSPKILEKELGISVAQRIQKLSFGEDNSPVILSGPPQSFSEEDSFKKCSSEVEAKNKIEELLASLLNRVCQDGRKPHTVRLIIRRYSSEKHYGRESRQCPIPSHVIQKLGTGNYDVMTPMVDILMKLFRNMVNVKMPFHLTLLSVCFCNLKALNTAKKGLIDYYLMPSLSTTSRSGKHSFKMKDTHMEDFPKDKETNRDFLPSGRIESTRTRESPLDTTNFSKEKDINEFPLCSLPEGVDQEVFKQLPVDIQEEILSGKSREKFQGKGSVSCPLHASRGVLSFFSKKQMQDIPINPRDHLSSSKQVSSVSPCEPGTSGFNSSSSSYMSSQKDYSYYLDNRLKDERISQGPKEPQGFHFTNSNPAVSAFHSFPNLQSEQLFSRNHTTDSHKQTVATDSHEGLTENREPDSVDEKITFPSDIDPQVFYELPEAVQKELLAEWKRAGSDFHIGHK
# In all, about 390,000 compounds went through this assay and about 4,000 (1%) were called active. The inconclusive results got no clear call from the source; some entries with a clear call stand among them for comparison. Calls come from the whole dose curve; as a rule, active = well fitted inhibition curve with a large enough effect; inconclusive = small, poorly fitted or top-dose-only effect, or another doubt; inactive = no such curve, though single readings can be large or run the other way. Where the call is inconclusive, the potency comes from a doubtful curve fit.
# Molecular target: DNA polymerase iota (Homo sapiens) (UniProt Q9UNA4)
# Test: qHTS for Inhibitors of Polymerase Iota
# Settings: Pol iota fluorescent replication assay, 10 min; series mostly up to 115 µM
# How it was run: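 Fluorescent replication assay read twice, at 0 min and 10 min after adding 50 nM (final) substrate. Enzyme (10 nM) and compounds were first incubated 15 min at room temperature; enzyme-free buffer wells were negative controls.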
# Potency is the fitted concentration of half-maximal effect.
row,SMILES,Potency
1,O=[N+]([O-])c1cccc(SSc2cccc([N+](=O)[O-])c2)c1,"inconclusive: 28.2 µM [inhibitor, partial curve, poor fit]"
2,O=C1CC(c2ccc(O)c(O)c2)Oc2cc(O)cc(O)c21 (configuration not stated),active: 50.1 µM
3,O=C(CCc1ccccc1)Nc1ccc(S(=O)(=O)N2CCCC2)cc1,inactive
4,COc1ccccc1/C=N\Nc1cc(C)nc(-n2nc(C)cc2C)n1,"inconclusive: 89.1 µM [inhibitor, partial curve, poor fit]"
5,CC(=O)NC(CC(=O)OCC(=O)c1ccc(NC(=O)CC(C)C)cc1)c1ccccc1 (configuration not stated),"inconclusive: 39.8 µM [inhibitor, partial curve]"
6,Cc1ccc(C2=NN(CCC(=O)NCc3ccc4c(c3)OCO4)C(=O)CC2)cc1,inactive
7,CC1CCN(S(=O)(=O)c2ccc3c(c2)CCC(=O)N3CC(=O)Nc2cccc(C#N)c2)CC1,"inconclusive: 89.1 µM [inhibitor, single point]"
8,CC(C)C(c1nnnn1C(C)(C)C)N1CCOCC1 (configuration not stated),"inconclusive: 35.5 µM [inhibitor, single point]"
9,O=C(NCc1ccccc1)c1ccc(CSc2nc3cccnc3n2Cc2ccccc2F)cc1,"inconclusive: 31.6 µM [inhibitor, full curve, poor fit]"
10,CC(=O)NCCn1c(SCc2ccc(C)cc2)nc2ccccc2c1=O,"inconclusive: 89.1 µM [inhibitor, single point]"
11,COc1cccc(C(=O)NN2CC(O)=C(c3nc4ccccc4s3)C2=N)c1,"inconclusive: 79.4 µM [inhibitor, partial curve]"
12,CCOC(=O)CSc1nc2cc3c(cc2cc1C#N)OCO3,"inconclusive: 39.8 µM [inhibitor, partial curve, poor fit]"
13,COc1ccc(C(=O)COC(=O)Cn2c(C)csc2=O)c(OC)c1,"inconclusive: 56.2 µM [inhibitor, partial curve, poor fit]"
14,Oc1ccccc1-c1cc(-c2ccco2)[nH]n1,"inconclusive: 11.2 µM [inhibitor, partial curve]"
15,CC(C)[C@@H](C(=O)NC1CCN(Cc2ccccc2)CC1)N1C(=O)N2CCc3c([nH]c4ccccc34)[C@@]2(C)C1=O,"inconclusive: 100 µM [inhibitor, partial curve, poor fit]"
16,NS(=O)(=O)c1ccc(O)c(NC(=O)c2ccc([N+](=O)[O-])o2)c1,"inconclusive: 25.1 µM [inhibitor, partial curve]"
17,O=C(Cn1cc(/C=N/NC(=O)c2cccc(C(F)(F)F)c2)c2ccccc21)Nc1ccc(F)cc1,"inconclusive: 28.2 µM [inhibitor, partial curve, poor fit]"
18,Cc1ccc(NC(=O)N2CCN(S(=O)(=O)c3ccccc3)CC2)cc1,"inconclusive: 89.1 µM [inhibitor, partial curve, poor fit]"
19,COc1ccc(/C=C2\SC(=S)N(CCCC(=O)Nc3ccc(C(=O)O)cc3)C2=O)cc1OC,active: 56.2 µM
20,CN(C)c1ccc(/C=C/c2sc3ccccc3[n+]2C)cc1,active: 79.4 µM
21,Cc1ccccc1CCNC(=O)c1ccc(Cn2c(=O)c3cccn3c3cccnc32)cc1,"inconclusive: 89.1 µM [inhibitor, partial curve, poor fit]"

# Sorted by count of non-hydrogen atoms (rising): some entries from above
row,SMILES,Potency
16,NS(=O)(=O)c1ccc(O)c(NC(=O)c2ccc([N+](=O)[O-])o2)c1,"inconclusive: 25.1 µM [inhibitor, partial curve]"
21,Cc1ccccc1CCNC(=O)c1ccc(Cn2c(=O)c3cccn3c3cccnc32)cc1,"inconclusive: 89.1 µM [inhibitor, partial curve, poor fit]"
9,O=C(NCc1ccccc1)c1ccc(CSc2nc3cccnc3n2Cc2ccccc2F)cc1,"inconclusive: 31.6 µM [inhibitor, full curve, poor fit]"

# Later entries

row,SMILES,Potency
1,Cc1cc(NC(=O)C(C)Sc2nc(-c3cccs3)nc3ccccc23)no1 (configuration not stated),"inconclusive: 44.7 µM [inhibitor, partial curve, poor fit]"
2,O=C(CSc1nccn1Cc1ccc(Cl)cc1)Nc1nc2ccccc2s1,"inconclusive: 89.1 µM [inhibitor, partial curve, poor fit]"
3,Cc1cc(N2C(=O)C(O)=C(C(=O)c3ccco3)C2c2cccc(Cl)c2)no1 (configuration not stated),"inconclusive: 8.91 µM [inhibitor, partial curve]"
4,COc1cc(OC)c(NC(=O)c2cnn(-c3ccccc3)c2-n2cccc2)cc1Cl,"inconclusive: 100 µM [inhibitor, partial curve, poor fit]"
5,O=C(NCc1ccccc1Cl)c1ccccc1NC(=O)c1nsc2ccccc12,inactive
6,COc1ccc(CNCC(=O)Nc2cc(OC)cc(OC)c2)cc1,"inconclusive: 79.4 µM [inhibitor, partial curve, poor fit]"
7,COc1ccc(C(=O)NC2(C(F)(F)F)C(=O)N(Cc3ccco3)C3=C2C(=O)CC(C)(C)C3)cc1OC (configuration not stated),"inconclusive: 112 µM [inhibitor, partial curve, poor fit]"
8,COc1ccc(C(=O)N/C(=C/c2ccco2)C(=O)N2CCCCCC2)cc1,"inconclusive: 39.8 µM [inhibitor, partial curve, poor fit]"
9,Cc1cccc(NC(=O)Cn2c(=O)n(CCCCCC(=O)NCc3ccccc3)c(=O)c3sccc32)c1,"inconclusive: 89.1 µM [inhibitor, single point]"
10,CCCn1c(=O)c2ccccc2n2c(SCC(=O)/C(C#N)=C(\C)N)nnc12,"inconclusive: 39.8 µM [inhibitor, partial curve]"
11,CCOc1ccc(CNC(=O)C2CCN(C(=O)c3ccc(-n4ccc5ccccc54)s3)CC2)cc1,active: 89.1 µM
12,CCCNC(=O)N1CCN(S(=O)(=O)c2ccc(C)c(C)c2)CC1,"inconclusive: 79.4 µM [inhibitor, single point]"
13,O=C(CCNS(=O)(=O)c1cccs1)NCc1ccco1,"inconclusive: 15.8 µM [inhibitor, partial curve, poor fit]"
14,CN(C)N=Nc1ccc(-c2cn(Cc3ccccc3)cn2)cc1,"inconclusive: 56.2 µM [inhibitor, single point]"
15,CCOc1ccc(C2C(C(=O)c3ccc(C)o3)=C(O)C(=O)N2c2cc(C)on2)cc1OC (configuration not stated),inactive
16,COc1ccc(C(=O)c2sc3nc4c(c(C(F)(F)F)c3c2N)CN(C(C)=O)CC4)cc1OC,"inconclusive: 89.1 µM [inhibitor, single point]"
17,CN(C(=O)CSc1nc(-c2ccccc2)no1)c1ccc(F)cc1,inactive
18,Cc1ccc2nc(-c3ccc(N4C(=NC(=O)CCC(=O)O)SC5CS(=O)(=O)CC54)cc3)sc2c1 (configuration not stated),"inconclusive: 35.5 µM [inhibitor, partial curve, poor fit]"
19,COc1ccc(CCNC(=O)CCC(=O)Nc2ccc3nc(N4CCN(C)CC4)cc(C)c3c2)cc1OC,"inconclusive: 5.62 µM [inhibitor, full curve, poor fit]"
20,CCN(CC)c1nc(N)c2c(N)nc(OC)cc2c1C#N,active: 8.91 µM
21,N#Cc1cccc(N=c2ssnc2Cl)c1,inactive

row,SMILES,Potency
1,COc1ccc(OCC(=O)Nc2cc(S(=O)(=O)N3CCCCC3)ccc2OC)cc1,inactive
2,O=C(COc1ccccc1)Nc1nnc(S(=O)(=O)Nc2ccccc2)s1,"inconclusive: 22.4 µM [inhibitor, partial curve, poor fit]"
3,CCN(Cc1ccccc1)c1ncnc2c1cnn2-c1ccc(F)cc1,"inconclusive: 89.1 µM [inhibitor, single point]"
4,Nc1cc(Cl)ccc1C(=O)OCC(=O)NC1CCS(=O)(=O)C1 (configuration not stated),"inconclusive: 100 µM [inhibitor, single point]"
5,Cc1cccc(C(=O)NC(=S)Nc2ccc(Cc3ccncc3)cc2)c1,"inconclusive: 35.5 µM [inhibitor, single point]"
6,CCOc1ccc(-n2cc(C(=O)N3CCC(C)CC3)c3cc(OC)c(OC)cc3c2=O)cc1,"inconclusive: 39.8 µM [inhibitor, single point]"
7,COc1cccc2nccc(/C=C/c3ccc(N(C)C)cc3)c12,"inconclusive: 2.24 µM [inhibitor, full curve, poor fit]"
8,CC1(OC(=O)c2ccco2)C(=O)C=C2C=C(C3CC3)OC=C2C1=O (configuration not stated),"inconclusive: 15.8 µM [inhibitor, full curve, poor fit]"
9,O=C1OCCN1/N=C/c1ccc([N+](=O)[O-])o1,"inconclusive: 3.16 µM [inhibitor, full curve]"
10,COc1cccc(/C=N/Nc2snc(SC)c2C#N)c1O,"inconclusive: 50.1 µM [inhibitor, partial curve]"
11,Cc1nc(Nc2cccc(F)c2)c2oc3ccccc3c2n1,"inconclusive: 39.8 µM [inhibitor, single point]"
12,Cc1ccccc1NC(=O)C1CCN(S(=O)(=O)c2c(C)noc2/C=C/c2ccco2)CC1,inactive
13,Cc1cc(-n2c(C)cc(C(=O)CSc3[nH]c(=O)cc(C(F)(F)F)c3C#N)c2C)no1,inactive
14,C=CCn1c(SCc2cc(C(=O)OC)c(C)o2)nnc1-c1ccncc1,"inconclusive: 22.4 µM [inhibitor, partial curve, poor fit]"
15,Cc1ccc(-c2c3c(=O)n(C)c(=O)n(C)c3c3n2-c2ccccc2NC3c2ccc(C)cc2O)cc1 (configuration not stated),"inconclusive: 89.1 µM [inhibitor, partial curve, poor fit]"
16,CC(C)C(=O)Nc1ccnc(-c2cccnc2)n1,"inconclusive: 100 µM [inhibitor, single point]"
17,O=C(Nc1ccc2c(c1)CCCN2C(=O)c1cccs1)c1ccc(F)c(F)c1,"inconclusive: 89.1 µM [inhibitor, partial curve, poor fit]"
18,CCCNC(=O)COC(=O)c1ccc(Cl)c(S(=O)(=O)N2CCCC2)c1,"inconclusive: 100 µM [inhibitor, partial curve, poor fit]"
19,CC(=O)Nc1cccc2c1OCCO2,"inconclusive: 2 µM [inhibitor, full curve, poor fit]"
20,CCc1nn(C(C)C(=O)NC(C)CCc2ccco2)c(=O)c2cc3occc3n12 (configuration not stated),"inconclusive: 15.8 µM [inhibitor, partial curve, poor fit]"
